Source: article doi:10.1101/583740 (bioRxiv, 2019)

Sequences of proteins named here, by UniProt entry; tags and fusion partners are left off. A change or cut given only in a name is not applied to a line headed by its entry.
UniProt Q9QZC1: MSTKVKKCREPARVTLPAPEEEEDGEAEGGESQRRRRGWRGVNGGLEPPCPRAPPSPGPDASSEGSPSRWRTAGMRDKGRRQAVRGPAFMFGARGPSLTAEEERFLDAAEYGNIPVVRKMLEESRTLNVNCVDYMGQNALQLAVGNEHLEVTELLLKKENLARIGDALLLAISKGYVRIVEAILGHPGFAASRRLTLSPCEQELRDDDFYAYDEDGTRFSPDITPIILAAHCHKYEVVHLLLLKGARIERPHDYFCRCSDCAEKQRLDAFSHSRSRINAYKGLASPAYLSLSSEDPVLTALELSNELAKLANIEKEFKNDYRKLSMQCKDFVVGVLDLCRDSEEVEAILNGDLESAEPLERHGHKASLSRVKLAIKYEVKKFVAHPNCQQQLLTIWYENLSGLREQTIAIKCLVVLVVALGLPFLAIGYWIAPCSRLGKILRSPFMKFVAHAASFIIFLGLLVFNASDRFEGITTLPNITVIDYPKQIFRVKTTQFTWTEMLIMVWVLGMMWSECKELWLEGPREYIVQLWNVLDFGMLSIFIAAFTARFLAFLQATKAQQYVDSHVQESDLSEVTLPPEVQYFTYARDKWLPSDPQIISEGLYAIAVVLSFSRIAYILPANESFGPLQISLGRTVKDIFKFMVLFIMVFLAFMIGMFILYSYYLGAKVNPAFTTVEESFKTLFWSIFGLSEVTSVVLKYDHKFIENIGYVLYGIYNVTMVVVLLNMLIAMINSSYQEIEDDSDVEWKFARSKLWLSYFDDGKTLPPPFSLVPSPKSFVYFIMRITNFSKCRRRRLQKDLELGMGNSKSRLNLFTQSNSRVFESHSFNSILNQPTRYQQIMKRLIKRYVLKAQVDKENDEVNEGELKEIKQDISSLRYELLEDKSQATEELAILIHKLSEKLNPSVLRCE

Target: T1, Recombinant SIRT1 (full-length) (UniProt Q923E4)
T1 sequence: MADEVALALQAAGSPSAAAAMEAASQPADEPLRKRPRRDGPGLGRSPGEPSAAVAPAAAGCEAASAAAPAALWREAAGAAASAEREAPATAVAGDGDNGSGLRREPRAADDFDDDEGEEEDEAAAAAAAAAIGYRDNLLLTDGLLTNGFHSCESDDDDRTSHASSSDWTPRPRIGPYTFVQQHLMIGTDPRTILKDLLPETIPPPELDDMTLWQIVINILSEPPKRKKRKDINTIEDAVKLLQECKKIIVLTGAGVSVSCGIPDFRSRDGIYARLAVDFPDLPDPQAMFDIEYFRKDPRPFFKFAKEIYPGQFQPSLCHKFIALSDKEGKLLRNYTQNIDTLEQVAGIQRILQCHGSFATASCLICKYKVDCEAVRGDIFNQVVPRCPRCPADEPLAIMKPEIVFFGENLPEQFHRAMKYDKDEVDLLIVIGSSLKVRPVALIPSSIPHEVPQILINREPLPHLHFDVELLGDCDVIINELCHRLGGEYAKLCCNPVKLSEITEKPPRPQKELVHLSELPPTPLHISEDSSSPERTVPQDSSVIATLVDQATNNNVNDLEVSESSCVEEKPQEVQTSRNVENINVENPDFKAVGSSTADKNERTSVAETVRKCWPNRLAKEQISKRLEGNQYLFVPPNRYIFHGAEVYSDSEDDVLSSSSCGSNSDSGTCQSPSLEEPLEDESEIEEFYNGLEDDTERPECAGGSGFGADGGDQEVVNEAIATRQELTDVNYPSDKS
Assay: condition: 140.2, 280.4, 560.8, 1122, 2243 μM TRPC3-N

- binding: no binding
Substance: TRPC3-N (1-369aa) (from UniProt Q9QZC1) (domain or fragment)

These are yes or no findings as the source states them, for the method shown.
